Measurements reported in PubChem BioAssay AID504784 (Drosophila RNAi Screening Center, 2011).
In all, the deposit lists about 17,000 reagents; shown is a random part of those with a known target gene and a result. 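Each column is one replicate's B-score; the combined score over replicates was not deposited, so single values may mislead.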 A plus sign joins genes that one reagent is predicted to hit.

- Screen: 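Genome-wide knock-down for genes giving too much or too little stored lipid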 (primary screen)
- System: Drosophila Kc167 embryonic cells
- Reagent: long dsRNA against Drosophila genes, about 250 ng dsRNA per well
- Duration: 4 days
- Challenge: cells fed 400 µM oleic acid bound to BSA
- Detection: 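Cells imaged and segmented; ratio of lipid droplet area to nuclear area, log-transformed, then normalised as a B-score over the screen; higher means more stored lipid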
- Reading the numbers: droplet/nuclear area B-score: higher = more stored lipid (overstorage)

predicted target,amplicon,"droplet/nuclear area B-score, replicate 1","droplet/nuclear area B-score, replicate 2","droplet/nuclear area B-score, replicate 3"
CG16812,DRSC02519,1.48,-0.334,
Unr (Upstream of N-ras),DRSC10761,-1.43,-2.26,
Spn42Db (Serpin 42Db),DRSC05009,-0.0208,-0.162,
HPS1 (Hermansky-Pudlak Syndrome 1),DRSC06195,0.0486,-2.07,
cold (coiled),DRSC00538,-0.272,0.0418,
HDAC1 (Histone deacetylase 1),DRSC08696,-2.04,-1.09,
CG17187,DRSC15181,-0.176,-0.953,
Acyp2 (Acylphosphatase 2),DRSC15336,-2.7,0.624,
Trap1,DRSC05019,0.74,0.238,
CG3600 (retired record),DRSC18599,1.14,1.67,
CG14960,DRSC08419,0.7,-1.54,
Usf,DRSC18129,-0.676,-0.0177,
Lrr47 (Leucine-rich repeat 47),DRSC03365,1.11,-1.48,
Fs(2)Ket (Female sterile (2) Ketel),DRSC03328,7.32,11.4,
CG8086,DRSC03078,-0.0318,1.63,
CG8086,DRSC03079,-0.0548,-0.684,
Ir7c (Ionotropic receptor 7c),DRSC18007,1.86,0.177,
CG8635,DRSC07226,-0.842,-0.604,
CG33523,DRSC09814,0.0785,-1.28,
CG33523,DRSC22155,0.569,0.787,
lms (lateral muscles scarcer),DRSC06387,-0.0667,1.25,

An excerpt from the list above, for reference:
predicted target,amplicon,"droplet/nuclear area B-score, replicate 1","droplet/nuclear area B-score, replicate 2","droplet/nuclear area B-score, replicate 3"
cold (coiled),DRSC00538,-0.272,0.0418,
HDAC1 (Histone deacetylase 1),DRSC08696,-2.04,-1.09,
CG17187,DRSC15181,-0.176,-0.953,
Acyp2 (Acylphosphatase 2),DRSC15336,-2.7,0.624,
Trap1,DRSC05019,0.74,0.238,

Further results follow.
predicted target,amplicon,"droplet/nuclear area B-score, replicate 1","droplet/nuclear area B-score, replicate 2","droplet/nuclear area B-score, replicate 3"
CG9500,DRSC03237,0.00379,0.905,
zip (zipper),DRSC04725,-0.39,-0.343,0.367
zip (zipper),DRSC22489,-0.283,0.439,
mRpL40 (mitochondrial ribosomal protein L40),DRSC15749,1.47,1.94,
CG9917,DRSC20218,-0.822,-0.948,-0.0435
CG14298,DRSC14777,-2.11,2.5,
Catsup (Catecholamines up),DRSC03288,-0.455,0.299,
CG17010,DRSC02559,0.208,0.516,
Polr3I (RNA polymerase III subunit I),DRSC19922,0.535,-0.088,
Oxp (Oxpecker),DRSC06712,1.21,-1.16,
Sodh1 (Sorbitol dehydrogenase 1),DRSC12605,-0.0413,5.47,
CG6865,DRSC10732,1.64,-0.343,
Cyp6a20 (Cytochrome P450 6a20),DRSC07380,-0.167,-0.132,
Sptr (Sepiapterin reductase),DRSC18719,-1.32,-0.58,-0.796
Jheh3 (Juvenile hormone epoxide hydrolase 3),DRSC06533,0.804,,
eIF4E6 (eukaryotic translation initiation factor 4E6),DRSC14853,0.749,1.16,
CG15548,DRSC15086,-1.82,0.546,
Ack (Activated Cdc42 kinase),DRSC08135,-0.947,-1.02,
sphe (spheroide),DRSC20203,-3.45,-0.264,
CG42337,DRSC11686,-0.864,0.588,
CG42337,DRSC11687,-2.57,-0.913,
CG42337,DRSC23099,2.15,1.73,
CG13615,DRSC14618,-0.402,1.07,
CG30031 + deltaTry + CG30025 + 1 more,DRSC21262,1.07,-0.000231,
CG5043,DRSC02805,-1.15,-0.0723,
CG11085,DRSC19374,-0.213,-0.269,-0.324
CG11085,DRSC22832,0.438,-1.05,
CG7786,DRSC07045,-0.0826,0.952,
Mrp4 (Multidrug resistance protein 4),DRSC14931,-1.18,-0.0829,
Picot,DRSC07508,-0.837,,
Atac3 (Ada2a-containing complex component 3),DRSC08579,1.35,0.403,
Twdlbeta (Tweedlebeta),DRSC07310,-0.674,2.32,
CG8087,DRSC16375,-1.67,2.33,
CG17985,DRSC06702,-0.123,1.93,
CG3308,DRSC15474,1.73,-0.187,
